The other results are listed elsewhere or left out. Repeats are few or missing, and single values can be far off.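 The apoptosis fraction was the count of cleaved-PARP antibody-stained nuclei relative to all DNA-stained nuclei, imaged in 1,536-well plates. Screening doses were set so most cells survived, and baseline and induced cleaved-PARP levels vary greatly across cell lines.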
What was measured:
Experiment in all cases: cleaved PARP positive nuclei fraction relative to DMSO control; melanoma cells; higher = more apoptosis
Conditions in all cases: library dose: low library concentration; 72 h
501Mel = system: 501Mel
A101D = system: A101D
A2058 = system: A2058
A375 = system: A375
C32 = system: C32
CBRC013 = system: CBRC013 (line from a melanoma biopsy)
CBRC014 = system: CBRC014 (line from a melanoma biopsy)
CBRC016 = system: CBRC016 (line from a melanoma biopsy)
CBRC017 = system: CBRC017 (line from a melanoma biopsy)
CBRC034 = system: CBRC034 (line from a melanoma biopsy)
COLO792 = system: COLO792
COLO800 = system: COLO800
COLO829 = system: COLO829
G361 = system: G361
IPC-298 = system: IPC-298
IST-MEL1 = system: IST-MEL1
LB2518-MEL = system: LB2518-MEL
LOXIMVI = system: LOXIMVI

| SMILES | cleaved PARP positive nuclei fraction (501Mel) [%] | cleaved PARP positive nuclei fraction (A101D) [%] | cleaved PARP positive nuclei fraction (A2058) [%] | cleaved PARP positive nuclei fraction (A375) [%] | cleaved PARP positive nuclei fraction (C32) [%] | cleaved PARP positive nuclei fraction (CBRC013) [%] | cleaved PARP positive nuclei fraction (CBRC014) [%] | cleaved PARP positive nuclei fraction (CBRC016) [%] | cleaved PARP positive nuclei fraction (CBRC017) [%] | cleaved PARP positive nuclei fraction (CBRC034) [%] | cleaved PARP positive nuclei fraction (COLO792) [%] | cleaved PARP positive nuclei fraction (COLO800) [%] | cleaved PARP positive nuclei fraction (COLO829) [%] | cleaved PARP positive nuclei fraction (G361) [%] | cleaved PARP positive nuclei fraction (IPC-298) [%] | cleaved PARP positive nuclei fraction (IST-MEL1) [%] | cleaved PARP positive nuclei fraction (LB2518-MEL) [%] | cleaved PARP positive nuclei fraction (LOXIMVI) [%] |
| --- | --- | --- | --- | --- | --- | --- | --- | --- | --- | --- | --- | --- | --- | --- | --- | --- | --- | --- |
| C#Cc1cccc(Nc2ncnc3cc(OCCOC)c(OCCOC)cc23)c1 [erlotinib] + CC(C)CCN1c2nc(Nc3cc(F)c(O)c(F)c3)ncc2N(C)C(=O)C1C [BID1870] (first compound 0.8 µM, partner dose 0.2 µM) | 187 | 99.1 | 78.8 | 297 | 62.3 | 421 | 93.4 | 127 | 130 | 138 | 81.1 | 78.7 | 67.9 | 216 | 86.2 | 41.5 | 78 | 76.3 |
| C[C@]1(c2nc3c(C(N)=O)cccc3[nH]2)CCCN1 [Veliparib] + CCCCCCCCCCCC1=C(O)C(=O)C=C(O)C1=O [Embelin] (first compound 1.4 µM, partner dose 1.2 µM) | 179 | 86.6 | 70.7 | 78.2 | 77.1 | 228 | 105 | 119 | 99.6 | 42.1 | 56.3 | 30.9 | 25.7 | 74.5 | 62.9 | 92.4 | 88.6 | 35.8 |
| C=CCn1c(=O)c2cnc(Nc3ccc(N4CCN(C)CC4)cc3)nc2n1-c1cccc(C(C)(C)O)n1 + COc1ccc(-c2ccc3c(N4CCOCC4)nc(N4C[C@@H](C)O[C@@H](C)C4)nc3n2)cc1CO [KU0063794] (first compound 0.02 µM, partner dose 0.02 µM) | 74.4 | 211 | 143 | 276 | 45.2 | 1010 | 126 | 110 | 95.1 | 47.5 | 142 | 62.8 | 172 | 105 | 187 | 160 | 79.8 | 72.6 |
| NC(=O)Nc1cc(-c2cccc(F)c2)sc1C(=O)N[C@H]1CCCNC1 + COc1cc2ncnc(Nc3ccc(Oc4ccccc4)cc3)c2cc1OC [SrcI1] (first compound 0.02 µM, partner dose 2 µM) | 231 | 103 | 98 | 510 | 179 | 89.9 | 197 | 123 | 76.8 | 104 | 135 | 105 | 178 | 91.5 | 80.6 | 96.3 | 63.8 | 85.5 |
| Cc1ccc(NC(=O)c2cccc(N(C)C)c2)cc1NC(=O)c1ccc(O)cc1 + COc1ccc(COc2ccc(Cc3cnc(N)nc3N)cc2OC)cc1 [GW2580] (first compound 2 µM, partner dose 1 µM) | 89.7 | 160 | 38.9 | 98.3 | 26.1 | 142 | 110 | 61.5 | 99.1 | 103 | 50.9 | 41.7 | 91.9 | 45.2 | 49.8 | 90.4 | 80.9 | 68.4 |
| C#Cc1cccc(Nc2ncnc3cc(OCCOC)c(OCCOC)cc23)c1 [erlotinib] + CCCCCCCCCCCC1=C(O)C(=O)C=C(O)C1=O [Embelin] (first compound 0.8 µM, partner dose 1.2 µM) | 33.7 | 219 | 161 | 166 | 48.4 | 144 | 96.2 | 71.8 | 77.2 | 101 | 51.7 | 117 | 129 | 71.6 | 85.7 | 82 | 83.2 | 57.6 |
| C[C@@H]1CCN(C(=O)CC#N)C[C@@H]1N(C)c1ncnc2[nH]ccc12 + Cn1cc(/C=C2\C(=O)Nc3cccnc32)c2ccccc21 [GW441756] (first compound 1 µM, partner dose 0.4 µM) | 91.4 | 281 | 29.2 | 48.6 | 47.2 | 194 | 104 | 104 | 77.3 | 89.8 | 37 | 152 | 54.5 | 81.7 | 109 | 137 | 87.4 | 86.5 |
| Cn1cncc1[C@@](N)(c1ccc(Cl)cc1)c1ccc2c(c1)c(-c1cccc(Cl)c1)cc(=O)n2C [tipifarnib] + CCCCCCCCCCCC1=C(O)C(=O)C=C(O)C1=O [Embelin] (first compound 0.01 µM, partner dose 1.2 µM) | 87.9 | 114 | 74 | 142 | 44.2 | 55 | 95.1 | 99.9 | 87.6 | 91.8 | 81.2 | 79.4 | 177 | 76.1 | 78.5 | 68 | 314 | 63.7 |
| C[C@]1(c2nc3c(C(N)=O)cccc3[nH]2)CCCN1 [Veliparib] + N#Cc1c(O)c2c(-c3ccc(-c4ccccc4O)cc3)csc2[nH]c1=O [A769662] (first compound 1.4 µM, partner dose 2 µM) | 87.6 | 33 | 132 | 138 | 64.3 | 67.3 | 95.2 | 131 | 168 | 33.3 | 159 | 186 | 35.3 | 99.7 | 41.6 | 45 | 84.7 | 39.4 |
| Cc1cc(N2CCOCC2)cc2[nH]c(-c3c(NC[C@@H](O)c4cccc(Cl)c4)cc[nH]c3=O)nc12 + c1cc(-c2cnn3cc(-c4ccc(OCCN5CCCCC5)cc4)cnc23)ccn1 [Dorsomorphin] (first compound 0.2 µM, partner dose 0.4 µM) | 116 | 108 | 239 | 62.2 | 232 | 153 | 103 | 43.4 | 166 | 92.3 | 145 | 116 | 67.2 | 91.1 | 65.6 | 183 | 76.7 | 109 |
| CC(C)(C)c1cnc(CSc2cnc(NC(=O)C3CCNCC3)s2)o1 + Oc1nc(-c2ccc(C(F)(F)F)cc2)nc2c1CSCC2 [XAV939] (first compound 0.01 µM, partner dose 2 µM) | 66.1 | 50.5 | 247 | 54.4 | 146 | 247 | 103 | 58.4 | 87 | 77.9 | 199 | 88.3 | 88 | 58.1 | 56.9 | 273 | 228 | 181 |
| CO[C@@H]1[C@H](N(C)C(=O)c2ccccc2)C[C@H]2O[C@]1(C)n1c3ccccc3c3c4c(c5c6ccccc6n2c5c31)C(=O)NC4 [Midostaurin] + COc1cc(N2CCC(N3CCN(C)CC3)CC2)ccc1Nc1ncc(Cl)c(Nc2ccccc2S(=O)(=O)C(C)C)n1 [NVP-TAE684] (first compound 0.08 µM, partner dose 0.08 µM) | 326 | 58.1 | 74.5 | 128 | 70.5 | 244 | 118 | 48 | 74.7 | 93.2 | 152 | 142 | 124 | 135 | 127 | 257 | 207 | 78.5 |
| Nc1cccc2c1CN(C1CCC(=O)NC1=O)C2=O (stereo unspecified) [lenalidomide] + Cc1cc([N+](=O)[O-])ccc1NS(=O)(=O)c1cc(Cl)ccc1Cl [FH535] (first compound 1 µM, partner dose 1 µM) | 259 | 132 | 68.1 | 79.9 | 28.8 | 129 | 108 | 493 | 360 | 221 | 130 | 75.7 | 133 | 307 | 89.2 | 47.5 | 83.1 | 106 |
| CC(C)(C)c1cnc(CSc2cnc(NC(=O)C3CCNCC3)s2)o1 + O=C(Nc1ccccc1)c1cc([N+](=O)[O-])ccc1Cl [GW9662] (first compound 0.01 µM, partner dose 2 µM) | 53.6 | 67.7 | 315 | 89.1 | 86.8 | 107 | 105 | 59.5 | 78.9 | 196 | 110 | 109 | 165 | 92.5 | 74.4 | 163 | 77.4 | 74.3 |
| COc1cc(Nc2ncc(F)c(Nc3ccc4c(n3)NC(=O)C(C)(C)O4)n2)cc(OC)c1OC [Tamatinib] + O=C(Nc1ccccc1)c1cc([N+](=O)[O-])ccc1Cl [GW9662] (first compound 0.4 µM, partner dose 2 µM) | 309 | 163 | 52.5 | 165 | 118 | 132 | 102 | 146 | 130 | 51.5 | 328 | 257 | 92.5 | 108 | 63.8 | 118 | 90.9 | 130 |
| CO[C@@H]1[C@H](N(C)C(=O)c2ccccc2)C[C@H]2O[C@]1(C)n1c3ccccc3c3c4c(c5c6ccccc6n2c5c31)C(=O)NC4 [Midostaurin] + O=C(O)C(=O)Nc1sc2c(c1C(=O)O)CCNC2 [TCS401] (first compound 0.08 µM, partner dose 1.66667 µM) | 67 | 337 | 40.6 | 81.4 | 137 | 126 | 73.6 | 143 | 65.6 | 82.9 | 118 | 322 | 107 | 120 | 64.4 | 142 | 41.4 | 67.8 |
| Cn1c(Nc2ccc(C(F)(F)F)cc2)nc2cc(Oc3ccnc(-c4ncc(C(F)(F)F)[nH]4)c3)ccc21 + c1cc(-c2cnn3cc(-c4ccc(OCCN5CCCCC5)cc4)cnc23)ccn1 [Dorsomorphin] (first compound 0.08 µM, partner dose 0.4 µM) | 106 | 79.4 | 69.1 | 165 | 50.6 | 861 | 102 | 124 | 155 | 112 | 195 | 260 | 118 | 313 | 132 | 46.2 | 130 | 84 |

A second format for some results above.
SMILES | cleaved PARP positive nuclei fraction (501Mel) [%] | cleaved PARP positive nuclei fraction (A101D) [%] | cleaved PARP positive nuclei fraction (A2058) [%] | cleaved PARP positive nuclei fraction (A375) [%] | cleaved PARP positive nuclei fraction (C32) [%] | cleaved PARP positive nuclei fraction (CBRC013) [%] | cleaved PARP positive nuclei fraction (CBRC014) [%] | cleaved PARP positive nuclei fraction (CBRC016) [%] | cleaved PARP positive nuclei fraction (CBRC017) [%] | cleaved PARP positive nuclei fraction (CBRC034) [%] | cleaved PARP positive nuclei fraction (COLO792) [%] | cleaved PARP positive nuclei fraction (COLO800) [%] | cleaved PARP positive nuclei fraction (COLO829) [%] | cleaved PARP positive nuclei fraction (G361) [%] | cleaved PARP positive nuclei fraction (IPC-298) [%] | cleaved PARP positive nuclei fraction (IST-MEL1) [%] | cleaved PARP positive nuclei fraction (LB2518-MEL) [%] | cleaved PARP positive nuclei fraction (LOXIMVI) [%]
CO[C@@H]1[C@H](N(C)C(=O)c2ccccc2)C[C@H]2O[C@]1(C)n1c3ccccc3c3c4c(c5c6ccccc6n2c5c31)C(=O)NC4 [Midostaurin] + O=C(O)C(=O)Nc1sc2c(c1C(=O)O)CCNC2 [TCS401] (first compound 0.08 µM, partner dose 1.66667 µM) | 67 | 337 | 40.6 | 81.4 | 137 | 126 | 73.6 | 143 | 65.6 | 82.9 | 118 | 322 | 107 | 120 | 64.4 | 142 | 41.4 | 67.8
Cn1c(Nc2ccc(C(F)(F)F)cc2)nc2cc(Oc3ccnc(-c4ncc(C(F)(F)F)[nH]4)c3)ccc21 + c1cc(-c2cnn3cc(-c4ccc(OCCN5CCCCC5)cc4)cnc23)ccn1 [Dorsomorphin] (first compound 0.08 µM, partner dose 0.4 µM) | 106 | 79.4 | 69.1 | 165 | 50.6 | 861 | 102 | 124 | 155 | 112 | 195 | 260 | 118 | 313 | 132 | 46.2 | 130 | 84

From the supplement of paper PMC4604168 (melanoma cell lines)
